Among the data in patent US7261876B2 (Bracco International BV, priority 2002, dated 2007) are isolated mass values, retold here.

This data set in a line: general procedure: Fmoc solid-phase peptide synthesis; NovaSyn TGR (Rink amide) resin (0.2 mmol/g); HOBt/DIC; HBTU/HOBt/DIEA. The note with it: whole synthesis, scale 0.25 mmol.

“Ac-AGPTWEEDDWYYKWLFGTGGGK-NH2 (6–13 lactam)” displayed an isolated mass of 8 mg.
